The list shows a part of the results, in another mix than the full data. For part of these data: At the low end of the ranking the order means little. Some of the results follow. For part of these data: The exact form of the protein is not confirmed.

The chains behind the UniProt entries cited, without tags or fusion partners. Where a name states a change or a piece, a line headed by the entry shows the natural chain unless it says otherwise.
UniProt P32519: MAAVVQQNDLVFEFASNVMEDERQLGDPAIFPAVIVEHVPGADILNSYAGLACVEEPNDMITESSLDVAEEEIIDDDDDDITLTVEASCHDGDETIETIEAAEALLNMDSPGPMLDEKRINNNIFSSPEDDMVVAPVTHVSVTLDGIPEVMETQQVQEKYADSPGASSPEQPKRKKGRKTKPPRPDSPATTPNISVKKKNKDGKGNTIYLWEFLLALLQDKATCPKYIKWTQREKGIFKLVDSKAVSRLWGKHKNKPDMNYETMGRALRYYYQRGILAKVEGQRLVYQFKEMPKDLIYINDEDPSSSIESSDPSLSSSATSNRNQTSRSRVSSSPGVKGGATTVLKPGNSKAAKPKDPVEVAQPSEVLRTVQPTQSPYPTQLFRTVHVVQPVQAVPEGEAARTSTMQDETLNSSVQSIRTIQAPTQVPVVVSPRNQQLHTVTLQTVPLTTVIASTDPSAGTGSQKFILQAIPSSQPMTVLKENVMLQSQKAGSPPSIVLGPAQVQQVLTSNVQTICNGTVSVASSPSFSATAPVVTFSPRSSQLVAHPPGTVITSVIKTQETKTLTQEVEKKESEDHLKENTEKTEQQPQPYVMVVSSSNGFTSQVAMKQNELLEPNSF
UniProt P50549: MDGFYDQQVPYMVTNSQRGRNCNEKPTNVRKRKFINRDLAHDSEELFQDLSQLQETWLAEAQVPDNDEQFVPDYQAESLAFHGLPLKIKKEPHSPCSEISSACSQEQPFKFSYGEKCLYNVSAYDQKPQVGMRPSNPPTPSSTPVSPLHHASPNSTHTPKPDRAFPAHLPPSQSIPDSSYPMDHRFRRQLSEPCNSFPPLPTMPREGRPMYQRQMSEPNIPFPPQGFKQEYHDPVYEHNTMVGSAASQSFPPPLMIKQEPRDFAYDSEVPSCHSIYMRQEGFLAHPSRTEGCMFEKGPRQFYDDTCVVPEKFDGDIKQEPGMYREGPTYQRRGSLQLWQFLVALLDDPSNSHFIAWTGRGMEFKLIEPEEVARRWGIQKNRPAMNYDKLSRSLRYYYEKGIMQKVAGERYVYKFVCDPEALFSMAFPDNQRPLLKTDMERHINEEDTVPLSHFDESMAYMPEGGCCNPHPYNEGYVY

In PMC7862700 one finds binding signal data, which are given here for 30 sequences.

Experiment in all cases: DAPPL (digital affinity profiling via proximity ligation, sequencing)
What all share (settings): 10 mM Tris-HCl pH 7.5, 50 mM NaCl, 1 mM DTT, 4% glycerol, room temperature, 30 min; GST-TFs on glutathione beads, 16-mer random dsDNA library, 0.1% …; high values mean tight binding; double strand, one strand shown; scale: fold enrichment (6-mer frequency, TF over GST control)

In test [1] the target is T1, ERG (UniProt P11308).
T1 sequence: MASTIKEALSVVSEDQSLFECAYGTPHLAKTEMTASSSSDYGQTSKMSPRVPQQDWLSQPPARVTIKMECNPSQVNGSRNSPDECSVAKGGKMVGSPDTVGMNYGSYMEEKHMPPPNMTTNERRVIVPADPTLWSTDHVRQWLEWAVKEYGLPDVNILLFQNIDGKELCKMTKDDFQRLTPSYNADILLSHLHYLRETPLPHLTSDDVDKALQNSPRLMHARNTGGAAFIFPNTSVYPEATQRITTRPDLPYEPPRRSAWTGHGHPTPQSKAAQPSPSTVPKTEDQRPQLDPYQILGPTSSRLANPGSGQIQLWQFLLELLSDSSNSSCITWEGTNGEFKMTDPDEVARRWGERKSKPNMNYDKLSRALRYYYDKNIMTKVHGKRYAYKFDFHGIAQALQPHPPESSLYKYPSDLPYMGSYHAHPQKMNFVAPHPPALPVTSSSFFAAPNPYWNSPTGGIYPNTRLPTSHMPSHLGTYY

The target in test [2] is ELF1 (UniProt P32519).
Test [3] concerns the target T2, ELK4 (UniProt P28324-2).
T2 sequence: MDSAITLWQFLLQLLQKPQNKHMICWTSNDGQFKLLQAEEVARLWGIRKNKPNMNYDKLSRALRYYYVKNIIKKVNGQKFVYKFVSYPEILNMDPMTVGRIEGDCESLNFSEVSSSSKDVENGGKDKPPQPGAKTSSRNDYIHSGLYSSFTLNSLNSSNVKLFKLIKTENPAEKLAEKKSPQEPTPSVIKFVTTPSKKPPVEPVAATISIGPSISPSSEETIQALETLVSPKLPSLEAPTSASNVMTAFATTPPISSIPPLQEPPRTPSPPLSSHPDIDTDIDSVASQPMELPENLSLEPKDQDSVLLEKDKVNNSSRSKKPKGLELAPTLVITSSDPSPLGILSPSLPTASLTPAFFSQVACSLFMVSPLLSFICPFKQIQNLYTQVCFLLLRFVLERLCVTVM

Test [4] addresses T3, ETV4 (UniProt P43268).
T3 sequence: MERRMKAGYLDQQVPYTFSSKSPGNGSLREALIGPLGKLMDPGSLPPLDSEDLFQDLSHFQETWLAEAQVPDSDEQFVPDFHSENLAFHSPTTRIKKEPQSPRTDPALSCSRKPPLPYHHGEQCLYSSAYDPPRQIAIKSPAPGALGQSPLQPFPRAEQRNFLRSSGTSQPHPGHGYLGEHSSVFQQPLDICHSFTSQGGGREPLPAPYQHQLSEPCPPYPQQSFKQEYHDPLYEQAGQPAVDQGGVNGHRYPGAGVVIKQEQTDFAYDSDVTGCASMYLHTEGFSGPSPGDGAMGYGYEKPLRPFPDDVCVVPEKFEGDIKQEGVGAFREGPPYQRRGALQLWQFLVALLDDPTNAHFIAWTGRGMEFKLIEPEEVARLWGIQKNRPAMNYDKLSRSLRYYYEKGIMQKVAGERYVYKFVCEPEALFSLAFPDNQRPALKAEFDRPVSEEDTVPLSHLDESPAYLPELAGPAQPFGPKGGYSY

Test [5] addresses ETV1 (UniProt P50549).
Test [6] has as its target T4, ERF (UniProt P50548).
T4 sequence: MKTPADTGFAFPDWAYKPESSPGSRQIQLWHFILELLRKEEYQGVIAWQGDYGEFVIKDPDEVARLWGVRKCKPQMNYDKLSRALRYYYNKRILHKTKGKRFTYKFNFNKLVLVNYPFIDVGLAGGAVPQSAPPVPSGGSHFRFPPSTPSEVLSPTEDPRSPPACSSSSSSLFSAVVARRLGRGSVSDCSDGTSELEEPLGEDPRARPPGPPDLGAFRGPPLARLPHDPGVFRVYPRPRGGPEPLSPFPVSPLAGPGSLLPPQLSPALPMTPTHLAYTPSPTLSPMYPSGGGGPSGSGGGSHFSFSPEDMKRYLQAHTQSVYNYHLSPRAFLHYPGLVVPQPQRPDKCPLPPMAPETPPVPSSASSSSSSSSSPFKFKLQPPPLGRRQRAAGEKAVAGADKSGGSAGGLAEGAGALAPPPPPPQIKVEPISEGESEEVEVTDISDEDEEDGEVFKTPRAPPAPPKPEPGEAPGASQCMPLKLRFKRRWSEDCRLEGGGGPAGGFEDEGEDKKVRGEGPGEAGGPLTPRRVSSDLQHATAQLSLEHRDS

Turning to GGAGTA, the binding signal in test [1] turned out to be 0.333; in test [2] it was 0.342; in test [3], 0.373; in test [4] it was 0.355; in test [5], 0.354; in test [6], 0.385.

Regarding ACCGTG, the binding signal in test [1] came to 0.219; in test [2], 0.209; in test [3], 0.261; in test [4] it was 0.243; in test [5], 0.237; in test [6] it was 0.246.

Regarding GACGCT, the binding signal in test [1] is 0.83; in test [2], 0.826; in test [3], 0.787; in test [4], 0.765; in test [5], 0.749; in test [6], 0.825.

With GGAGGA, the binding signal was 0.28 in test [1]; 0.238 in test [2]; 0.202 in test [3]; 0.245 in test [4]; 0.262 in test [5]; 0.265 in test [6].

Consider GGGTCC, for which the binding signal came out at 0.849 in test [1]; 0.807 in test [2]; 0.716 in test [3]; 0.805 in test [4]; 0.838 in test [5]; 0.859 in test [6].

As for AGCGCA, the binding signal in test [1] came out at 0.94; in test [2], 0.939; in test [3] it was 0.998; in test [4] it was 0.907; in test [5] it was 0.928; in test [6], 0.907.

Regarding GCCCAG, the binding signal stood at 0.745 in test [1]; 0.723 in test [2]; 0.724 in test [3]; 0.751 in test [4]; 0.755 in test [5]; 0.724 in test [6].

Regarding GAGGAA, the binding signal in test [1] worked out at 0.867; in test [2] it was 0.709; in test [3], 0.597; in test [4], 0.715; in test [5], 0.871; in test [6], 0.75.

In the case of CGTGCA, the binding signal in test [1] amounted to 0.648; in test [2], 0.72; in test [3], 0.714; in test [4], 0.639; in test [5] it was 0.69; in test [6], 0.706.

Turning to GCCGAG, the binding signal in test [1] is 0.6; in test [2], 0.592; in test [3] it was 0.65; in test [4], 0.687; in test [5], 0.608; in test [6], 0.603.

On to GGGAGG, for which the binding signal in test [1] worked out at 0.34; in test [2] it was 0.301; in test [3], 0.328; in test [4], 0.308; in test [5], 0.355; in test [6], 0.307.

In the case of GTCGGA, the binding signal in test [1] is 0.187; in test [2] it was 0.168; in test [3], 0.134; in test [4] it was 0.158; in test [5], 0.153; in test [6], 0.144.

For the sequence GAGGTA, the binding signal amounted to 0.644 in test [1]; 0.657 in test [2]; 0.59 in test [3]; 0.703 in test [4]; 0.658 in test [5]; 0.69 in test [6].

Regarding GGCCGG, the binding signal in test [1] stood at 0.644; in test [2] it was 0.493; in test [3] it was 0.537; in test [4], 0.604; in test [5], 0.616; in test [6], 0.529.

Turning to GTACGG, the binding signal in test [1] was found to be 0.907; in test [2] it was 0.809; in test [3] it was 0.869; in test [4] it was 0.781; in test [5], 0.802; in test [6] it was 0.834.

For the sequence ACCCAG, the binding signal in test [1] came out at 0.749; in test [2], 0.708; in test [3] it was 0.694; in test [4], 0.72; in test [5], 0.655; in test [6], 0.756.

TCCGTG: the binding signal in test [1] came to 0.536; in test [2] it was 0.486; in test [3], 0.507; in test [4] it was 0.514; in test [5] it was 0.52; in test [6], 0.43.

Turning to AGGGGT, the binding signal in test [1] was found to be 0.791; in test [2], 0.795; in test [3], 0.819; in test [4] it was 0.796; in test [5], 0.805; in test [6], 0.837.

As for AGCCGT, the binding signal turned out to be 0.467 in test [1]; 0.48 in test [2]; 0.443 in test [3]; 0.5 in test [4]; 0.469 in test [5]; 0.485 in test [6].

On to GCATGG, for which the binding signal was 0.934 in test [1]; 0.821 in test [2]; 0.888 in test [3]; 0.855 in test [4]; 0.947 in test [5]; 0.941 in test [6].

Regarding AGTTCA, the binding signal in test [1] is 0.908; in test [2] it was 0.906; in test [3] it was 0.991; in test [4] it was 0.917; in test [5], 0.926; in test [6] it was 0.861.

For the sequence GTGAAA, the binding signal amounted to 0.681 in test [1]; 0.783 in test [2]; 0.65 in test [3]; 0.721 in test [4]; 0.807 in test [5]; 0.67 in test [6].

On to ACAGTC, for which the binding signal in test [1] is 0.432; in test [2], 0.445; in test [3] it was 0.445; in test [4], 0.407; in test [5], 0.481; in test [6] it was 0.448.

Regarding TGAGTT, the binding signal in test [1] worked out at 0.36; in test [2], 0.389; in test [3], 0.411; in test [4], 0.408; in test [5] it was 0.451; in test [6] it was 0.393.

For GTAACG, the binding signal in test [1] was 0.916; in test [2], 0.945; in test [3] it was 1.03; in test [4], 0.958; in test [5] it was 0.904; in test [6], 0.911.

Regarding GGTAGG, the binding signal in test [1] was found to be 0.642; in test [2] it was 0.613; in test [3], 0.667; in test [4], 0.621; in test [5] it was 0.647; in test [6], 0.63.

Take CCAGGT: the binding signal came to 0.705 in test [1]; 0.705 in test [2]; 0.754 in test [3]; 0.781 in test [4]; 0.811 in test [5]; 0.836 in test [6].

Take AGGGAC: the binding signal amounted to 0.728 in test [1]; 0.757 in test [2]; 0.73 in test [3]; 0.792 in test [4]; 0.76 in test [5]; 0.862 in test [6].

CGTGGG: the binding signal in test [1] was found to be 0.373; in test [2], 0.349; in test [3] it was 0.4; in test [4], 0.358; in test [5], 0.386; in test [6], 0.405.

For the sequence GTGGGC, the binding signal in test [1] was determined as 0.734; in test [2] it was 0.755; in test [3] it was 0.61; in test [4] it was 0.748; in test [5], 0.708; in test [6], 0.767.
